Source: PubChem BioAssay AID743255 (National Center for Advancing Translational Sciences (NCATS), 2014)
About 910 (0.23%) of roughly 390,000 compounds were called active. The shares of active, inactive and inconclusive entries below differ from those in the screen. The call rests on the fitted dose curve; in most records, active means well fitted inhibition curve with a large enough effect; inconclusive means small, poorly fitted or top-dose-only effect; inactive means no such curve, though single readings can be large or run the other way. A potency beside an inconclusive call is a rough fit, not a confirmed value.
Further: nearly all actives have a fitted effect of over 60% in size.
Potency means the concentration at half of the fitted maximal effect.

The chains behind the UniProt entries cited, without tags or fusion partners. Where a name states a change or a piece, a line headed by the entry shows the natural chain unless it says otherwise.
UniProt O94782: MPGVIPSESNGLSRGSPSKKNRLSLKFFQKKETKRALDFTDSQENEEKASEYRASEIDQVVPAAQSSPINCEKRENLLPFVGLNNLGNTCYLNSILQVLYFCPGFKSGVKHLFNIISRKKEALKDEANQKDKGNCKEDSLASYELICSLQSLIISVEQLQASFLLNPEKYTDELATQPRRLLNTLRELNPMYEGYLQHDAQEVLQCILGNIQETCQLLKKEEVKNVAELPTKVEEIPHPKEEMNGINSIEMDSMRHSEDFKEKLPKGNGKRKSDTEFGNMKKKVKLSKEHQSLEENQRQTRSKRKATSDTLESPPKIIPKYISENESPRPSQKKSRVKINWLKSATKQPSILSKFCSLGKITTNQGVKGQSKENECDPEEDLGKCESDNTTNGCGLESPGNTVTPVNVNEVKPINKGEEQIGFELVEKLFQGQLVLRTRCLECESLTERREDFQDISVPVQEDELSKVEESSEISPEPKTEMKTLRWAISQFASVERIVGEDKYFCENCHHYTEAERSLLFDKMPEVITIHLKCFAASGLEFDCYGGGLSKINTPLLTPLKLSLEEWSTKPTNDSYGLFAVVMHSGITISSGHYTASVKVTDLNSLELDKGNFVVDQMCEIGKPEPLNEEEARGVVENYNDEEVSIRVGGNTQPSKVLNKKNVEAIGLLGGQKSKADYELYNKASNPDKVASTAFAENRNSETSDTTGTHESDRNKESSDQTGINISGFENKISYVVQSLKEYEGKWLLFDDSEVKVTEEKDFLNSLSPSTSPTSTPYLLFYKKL

What follows are compounds tested against Ubiquitin carboxyl-terminal hydrolase 1 (Homo sapiens) (UniProt O94782) (assay: Inhibitors of USP1/UAF1: Primary Screen). Conditions: recombinant USP1/UAF1, Ub-Rhodamine cleavage fluorescence; series mostly up to 57.1 µM.
Summary of the method: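 USP1/UAF1 complex at 1 nM was preincubated with compound for 15 min at room temperature, then Ub-Rho substrate (150nM final) was added. Fluorescence (480/540 nm) was read kinetically, 6 reads every 60 seconds.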
For `Cc1ccc(C(=O)N2CCC3(CC2)Oc2ccc(F)cc2C(=O)C32CC(c3ccc(Cl)cc3)=NO2)s1` (stereo not given), the Potency was inconclusive: 0.282 µM [inhibitor, full curve, poor fit].
With `CC[C@]1(c2ccccc2C)ON(c2ccccc2C(F)(F)F)C1=O` the Potency was inconclusive: 50.1 µM [inhibitor, partial curve, poor fit].
With `O=C(CSc1ccc(-c2ccco2)nn1)NCc1ccccc1` the Potency was “inactive”.
For `CCn1c(SCC(=O)Nc2oc(-c3ccccc3)c(-c3ccccc3)c2C#N)nnc1-c1cc(OC)cc(OC)c1`, the Potency was inconclusive: 50.1 µM [inhibitor, partial curve, poor fit].
`COc1ccc(C)cc1S(=O)(=O)NNc1nc(C)cc(C)n1` was tested, and the Potency was inconclusive: 35.5 µM [inhibitor, single point].
For `CC(=O)c1ccc(OCC(O)Cn2nnc3ccccc32)cc1` (stereo not given), the Potency was inconclusive: 56.2 µM [inhibitor, single point].
With `COc1ccc(C(=O)N2CCN(C3CCCCC3)CC2)cc1OC` the Potency was “inactive”.
`CC(C)Oc1ccc(C(=O)/C=C2/C(=O)Nc3ccccc32)cc1` was tested, and the Potency was inconclusive: 7.94 µM [inhibitor, full curve].
With `O=C(O)c1cc(S(=O)(=O)N2CCCCCC2)c(Cl)cc1Cl` the Potency was inconclusive: 22.4 µM [inhibitor, single point].
In the case of `CC(C)c1ccc(/C=N/NC(=O)CCNC(=O)c2ccccc2)cc1`, the Potency is reported as inconclusive: 35.5 µM [inhibitor, partial curve].
For `Cc1ccc(S(=O)(=O)NC(C)(C)CSc2ncccn2)cc1`, the Potency was inconclusive: 31.6 µM [inhibitor, single point].
In the case of `COc1ccc(COc2ccsc2C(=O)Nc2ccc(Cl)c(Cl)c2)cc1`, the Potency is reported as inconclusive: 31.6 µM [inhibitor, partial curve].
With `O=C(NCc1ccccc1)C(=O)Nc1c2c(nn1-c1ccc(F)cc1)CSC2` the Potency was inconclusive: 39.8 µM [inhibitor, partial curve].
`CC1(c2ccc(Cl)cc2)NC(=O)N(CC(=O)Nc2cccnc2Cl)C1=O` (stereo not given) was tested, and the Potency was inconclusive: 44.7 µM [inhibitor, partial curve, poor fit].
With `CCS(=O)(=O)N1CCc2cc(C(=O)NCc3ccccc3OC)ccc21` the Potency was “inactive”.
`CC(C)(C)c1ccc(OCCOc2ccc(C(C)(C)C)cc2NC=O)c(NC=O)c1` was tested, and the Potency was inconclusive: 35.5 µM [inhibitor, partial curve].
In the case of `Cc1nc(-c2ccccc2)sc1C1(C)CC(c2c(Cl)cccc2Cl)=NO1` (stereo not given), the Potency is reported as inconclusive: 44.7 µM [inhibitor, partial curve, poor fit].
With `CCOC(=O)C(CC(=O)O)=C(c1ccccc1)c1ccccc1` the Potency was inconclusive: 0.708 µM [inhibitor, full curve, poor fit].
For `CC(C)c1ccc(S(=O)(=O)/N=C2\C=C(NS(=O)(=O)c3ccccc3)C(=O)c3ccccc32)cc1`, the Potency was inconclusive: 31.6 µM [inhibitor, partial curve].
`O=C(C#Cc1ccccc1)c1cccc([N+](=O)[O-])c1` was tested, and the Potency was “inactive”.
In the case of `COC1=C/C(=C/c2c(N)n3nc(CC(=O)N4CCOCC4)sc3nc2=O)C=CC1=O`, the Potency is reported as inconclusive: 25.1 µM [inhibitor, partial curve, poor fit].
In the case of `COCCn1c(N)c(C#N)c2nc3ccccc3nc21`, the Potency is reported as inconclusive: 25.1 µM [inhibitor, partial curve].
`COc1cccc(NC(=S)/C(=C(\[O-])c2ccc(OC(F)F)cc2)[n+]2ccccc2)c1` was tested, and the Potency was inconclusive: 28.2 µM [inhibitor, single point].
`CCCC(=O)c1c[nH]c(C(=O)N2CCOCC2)c1` was tested, and the Potency was “inactive”.
For `COc1ccc(Cl)cc1-n1cc(-c2ccccc2)nc1SCC(=O)Nc1ccc(C)cc1`, the Potency was “inactive”.
For `O=C(Cc1cc(=O)[nH][nH]1)N/N=C/c1ccccc1Cl`, the Potency was “inactive”.
With `CCc1ccc(CN(Cc2cccnc2)C(=O)/C=C/c2ccc(OC)cc2)cc1` the Potency was inconclusive: 50.1 µM [inhibitor, partial curve, poor fit].
In the case of `CCCCn1c(=O)nc2n(-c3ccc(OC)cc3)c3ccccc3cc-2c1=O`, the Potency is reported as inconclusive: 3.98 µM [inhibitor, partial curve].
For `CC1CN(C(=O)c2cccc(S(=O)(=O)N3CCOCC3)c2)CC(C)O1` (stereo not given), the Potency was inconclusive: 3.16 µM [inhibitor, partial curve].
With `C=CCn1c(Cc2ccc(OC)cc2)nnc1SCC(=O)c1cccc([N+](=O)[O-])c1` the Potency was inconclusive: 0.447 µM [inhibitor, full curve, poor fit].
In the case of `CC(C)c1cccc(C(C)C)c1NC(=O)CN1CCCC1`, the Potency is reported as inconclusive: 39.8 µM [inhibitor, partial curve, poor fit].
`CCc1ccc(S(=O)(=O)c2cn(CC(=O)Nc3ccc(F)c(Cl)c3)c3ccccc3c2=O)cc1` was tested, and the Potency was inconclusive: 3.98 µM [inhibitor, full curve].
In the case of `O=C(Nc1ccc(F)cc1)NC1CCCCC1`, the Potency is reported as inconclusive: 28.2 µM [inhibitor, partial curve].
For `O=C(C1CCC1)N1CCC(O)(c2cccc(F)c2)CC1`, the Potency was “inactive”.
With `CCN(C[C@H]1N[C@@](Cc2ccccc2)(C(=O)OC)[C@H]2C(=O)N(C)C(=O)[C@@H]12)C(=O)c1ccc(F)cc1` the Potency was inconclusive: 6.31 µM [inhibitor, partial curve].
With `CCCCN1CCC(CN2C(=S)NC[C@@H]2CC(C)C)CC1` the Potency was inconclusive: 5.01 µM [inhibitor, partial curve].
In the case of `CCOC(=O)N/N=C\c1ccc(OC(=O)c2ccco2)cc1`, the Potency is reported as “inactive”.
In the case of `CCN(CC)C(=O)[C@H]1C[C@H](CC(=O)NC/C=C(\C)CCC=C(C)C)C(=O)N2CCc3c([nH]c4ccc(Cl)cc34)[C@]12C`, the Potency is reported as inconclusive: 39.8 µM [inhibitor, partial curve, poor fit].
With `Cc1ccc(-c2cc(N)nc(-c3ccccc3)c2)cc1` the Potency was inconclusive: 7.08 µM [inhibitor, partial curve].
For `CCOc1ccc(-c2cn3c(n2)sc2cc(C(=O)NCCCN4CCCCCC4)ccc23)cc1`, the Potency was inconclusive: 44.7 µM [inhibitor, partial curve].
For `Cc1nc2cc(NC(=O)N3c4ccccc4CC3C)ccc2n1C` (stereo not given), the Potency was inconclusive: 5.62 µM [inhibitor, partial curve].
With `COc1ccc(NC(=O)CCc2c(C)nc3c(c2C)c(=O)n(C)c(=O)n3C)c(OC)c1` the Potency was inconclusive: 4.47 µM [inhibitor, full curve, poor fit].
For `CC(CCC(=O)Nc1nncs1)C(=O)O` (stereo not given), the Potency was “inactive”.
`O=C(COc1ccccc1Cl)Nc1ccc(OCc2cc(=O)n3ccsc3n2)cc1` was tested, and the Potency was inconclusive: 0.316 µM [inhibitor, full curve, poor fit].
In the case of `Cc1ccc(C)c(C(=O)CN2C3=NCCCN3c3ccccc32)c1`, the Potency is reported as “inactive”.
With `O/C(=C\c1ccc2ccccc2n1)c1ccc(O)cc1O` the Potency was active: 28.2 µM.
With `CCc1ccc2[nH]cc(S(=O)(=O)c3ccc(C(C)C)cc3)c(=O)c2c1` the Potency was “inactive”.
In the case of `Nc1ccc(S(=O)(=O)c2cc(O)c3ccccc3c2O)cc1`, the Potency is reported as inconclusive: 15.8 µM [inhibitor, partial curve].
`CC1(C)CC(=O)C(Br)=C(O)C1` was tested, and the Potency was inconclusive: 0.126 µM [inhibitor, full curve, poor fit].
`CC1CCC2C(=O)N(c3cc(Cl)ccc3OC(=O)c3ccco3)C(=O)C2C1` (stereo not given) was tested, and the Potency was inconclusive: 0.447 µM [inhibitor, full curve, poor fit].
In the case of `CCOc1ccccc1NC(=O)COc1ccc2c(c1)OCO2`, the Potency is reported as inconclusive: 0.224 µM [inhibitor, full curve, poor fit].
For `COc1ccc(N=Cc2c(O)ccc3ccccc23)cc1`, the Potency was inconclusive: 44.7 µM [inhibitor, partial curve].
`COc1ccc(C(=O)Nc2nc(C)cs2)cc1S(=O)(=O)N1CCOCC1` was tested, and the Potency was inconclusive: 11.2 µM [inhibitor, partial curve, poor fit].
For `CCN(C(=S)Nc1cccc(C)c1)c1ccccc1`, the Potency was “inactive”.
In the case of `COc1cccc(/C=C2/NC(=O)N(CC(=O)Nc3ccc(C)cc3)C2=O)c1OCc1cccc(C(=O)O)c1`, the Potency is reported as active: 25.1 µM.
`O=C1c2cccc3c(N4CCCCC4)ccc(c23)C(=O)N1CCO` was tested, and the Potency was inconclusive: 15.8 µM [inhibitor, partial curve].
`Clc1ccc(C2=CC(c3ccco3)n3ncnc3N2)cc1` (stereo not given) was tested, and the Potency was inconclusive: 31.6 µM [inhibitor, partial curve, poor fit].
For `CN1CCCC1=Nc1ccccc1`, the Potency was inconclusive: 44.7 µM [inhibitor, partial curve, poor fit].
`O=C(Cn1c(=O)n(Cc2nc(-c3ccccc3)no2)c(=O)c2cc3c(cc21)OCO3)Nc1ccccc1` was tested, and the Potency was “inactive”.
In the case of `Cc1ccccc1N(C(=O)c1snc(C(N)=O)c1N)C(C(=O)NC1CCCCC1)c1ccc(O)cc1` (stereo not given), the Potency is reported as inconclusive: 44.7 µM [inhibitor, partial curve, poor fit].
For `O=C(c1ccncc1)N1N=C(C2CCCCC2)CC1(O)C(F)(F)F` (stereo not given), the Potency was inconclusive: 10 µM [inhibitor, single point].
In the case of `O=C1NC(=O)/C(=C\c2ccc(Sc3ccc(Cl)cc3)o2)N1`, the Potency is reported as “inactive”.
In the case of `CCOc1ccc(N=Cc2ccc([N+](=O)[O-])cc2)c(O)c1`, the Potency is reported as inconclusive: 39.8 µM [inhibitor, partial curve, poor fit].
In the case of `CCn1c2ccccc2c2cc(CN3CCN(Cc4ccc(Br)cc4)CC3)ccc21`, the Potency is reported as inconclusive: 8.91 µM [inhibitor, partial curve, poor fit].
For `COc1ccc(C(=O)Nc2cccc(C(=O)OCc3cc(=O)n4nc(C5CC5)sc4n3)c2)cc1`, the Potency was inconclusive: 8.91 µM [inhibitor, single point].
